{"sequences": {"note": "Amino acid sequences for entries named in this document (tags omitted).", "UniProt P61956": "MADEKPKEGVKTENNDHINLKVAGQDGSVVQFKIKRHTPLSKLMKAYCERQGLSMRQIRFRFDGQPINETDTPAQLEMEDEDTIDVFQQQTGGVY"}, "source": "paper doi:10.1101/2022.03.23.485504", "binders": {"B1": {"name": "recombinant SUMO4-WT (rSUMO4-WT) (protein, UniProt Q6EEV6 1-95)", "chain": "MANEKPTEEVKTENNNHINLKVAGQDGSVVQFKIKRQTPLSKLMKAYCEPRGLSVKQIRFRFGGQPISGTDKPAQLEMEDEDTIDVFQQPTGGVY"}}, "biological_target": "recombinant SUMO2 (rSUMO2) (human) (UniProt P61956)", "test": "cross-linking", "note": "Results are given in words; binding and its absence hold for the method and conditions named. Some results given as binding are weak or reduced against the parent protein; the word gives no strength."}
{"binder": "B1", "values": [{"measurement": "binding", "result": "binds weakly"}]}
